The record followed here is PubChem BioAssay AID2685 (National Center for Advancing Translational Sciences (NCATS), 2010).

As usually defined, the AC50 is the midpoint of the concentration-response curve, whichever way the signal moves. Low values mean activity at low concentration, high ones activity only at high concentration.

This is one part of the list. The main result of the screen is listed elsewhere. These columns were measured beside it and carry no call. The list favours compounds with an active or inconclusive main result. Words in brackets tell the shape of the fitted curve; partial curves, single points and poor fits give uncertain potencies.

The test is described as follows: qHTS Assay for Lipid Storage Modulators in Drosophila S3 Cells.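 As to cell number change: cells counted by Cell Tracker Red CMTPX staining in the red channel.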 Conditions: BODIPY lipid droplet fluorescence, 18-24 h; for cell number change: measured here: cell count max response, cells fed with added oleic acid. In a few lines:
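Drosophila S3 cells loaded with oleic acid (400 uM, as added) and compounds at several concentrations; lipid droplets imaged by 488-nm laser-scanning cytometry, 500–530 nm intensity and object ratio to cell channel. Percent activity normalized to 20 uM Triacsin C.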

[1] abbreviates: measured here: cell number channel AC50, cells fed with added oleic acid.
Setting [2] is: measured here: lipid fluorescence (Fed channel) AC50, cells fed with added oleic acid.

Take `Cc1cccc(N2CCN(C(=O)C3CCN(S(=O)(=O)c4cccc5nsnc45)CC3)CC2C)c1` (stereo not drawn): the cell number change was -45.6%. The AC50 under setting [1] was 29.1 µM [falling, single point]. The AC50 under setting [2] was 29.1 µM [rising, single point].

Consider `O=C(C1CCCO1)N1CCN(c2ccccn2)CC1` (stereo not drawn), for which the cell number change is -7.01%. In addition, the AC50 under setting [2] was 29.1 µM [falling, single point]. `c1cncc(-c2nnc(-c3cccnc3)nn2)c1`: the cell number change was -12.7%. Besides, under setting [2], the AC50 is 1.64 µM [falling, partial curve]. Regarding `CCN(CC)S(=O)(=O)c1ccc(NC(=O)CCN2C(=O)C3CC=CCC3C2=O)cc1` (stereo not drawn), the cell number change was -20.5%. For the same compound, the AC50 under setting [2] is 0.58 µM [rising, full curve]. `CCCSc1nc2cc(C)c(C)cc2n1CC(O)CO` (stereo not drawn): the AC50 reads like this: under setting [1], 0.00517 µM [falling, full curve]; under setting [2], 0.146 µM [falling, partial curve]. For the compound `COc1ccc(-c2nn(-c3ccccc3)cc2C=O)cc1[N+](=O)[O-]`, the cell number change was found to be 21.4%. Same read-out and setting: next, `COC(=O)c1ccc(CSc2nnc(-c3ccncc3)o2)cc1`: -25.5%.

For `COc1ccc(COc2ccc3ccc(=O)oc3c2)cc1`, the cell number change turned out to be 36.9%. Under setting [1], the half-maximal activity concentration (AC50) was 29.1 µM [rising, single point]. As to `COc1ccc(S(=O)(=O)N2CCCC(C(=O)NCc3ccncc3)C2)cc1` (stereo not drawn), the cell number change was -2.16%. Turning to `CCCCn1c(SCC(=O)c2ccccc2)nc2c1c(=O)[nH]c(=O)n2C`, the cell number change worked out at 44.5%. Under setting [1], the AC50 was 29.1 µM [rising, single point]. Under setting [2], the AC50 is 23.1 µM [rising, single point]. As to `Cc1cccc(C)c1NC(=O)NC1(C(=O)N2CCCCC2)CCCCC1`, the cell number change turned out to be 3.85%. Regarding `Cc1ccc(S(=O)(=O)Nc2ccc(NC(=O)c3c(F)c(F)c(F)c(F)c3F)cc2)cc1`, the cell number change was -27.5%. Also, the AC50 under setting [2] was 29.1 µM [falling, single point]. Take `COc1cccc(C(=O)NNC(=O)Cc2cccs2)c1`: the cell number change worked out at 22.8%. In addition, the AC50 under setting [2] was 3.66 µM [rising, full curve]. As for `CN(C)c1nccc(N(Cc2ccccc2)Cc2ccccc2)c1C#N`, the cell number change worked out at 40.7%. Besides, the AC50 under setting [1] was 5.8 µM [rising, full curve, poor fit]. Also, the AC50 under setting [2] was 0.517 µM [falling, full curve]. As to `Oc1c(N=NC(=S)Nc2ccccc2F)c2ccccc2n1Cc1ccccc1Cl`, the cell number change is -10.1%. Also, the AC50 under setting [2] is 16.4 µM [falling, single point]. Regarding `CCOc1cc(C#N)ccc1OCC(=O)N1CCc2ccccc2C1`, the cell number change is 11.1%. On the same count and under the same terms, the figure for `Cc1ccc(NC(=O)CN2CCN(CCN=CC3=C(O)CC(c4ccccc4)CC3=O)CC2)cc1` (stereo not drawn) is 13.3%.

Take `CCOc1cc(/C=C(/C#N)C(=O)Nc2ccc(OC)cc2)ccc1OCc1ccc(C(=O)O)cc1`: the cell number change was -9.68%. Further, the AC50 under setting [2] is 18.4 µM [falling, single point].
